Experimental data as given in paper PMC8833913.
Results are given in words; binding and its absence hold for the method and conditions named. In cells and extracts the contact can be indirect. Some results given as binding are weak or reduced against the parent protein; the word gives no strength.

The chains behind the UniProt entries cited, without tags or fusion partners.
UniProt P40337: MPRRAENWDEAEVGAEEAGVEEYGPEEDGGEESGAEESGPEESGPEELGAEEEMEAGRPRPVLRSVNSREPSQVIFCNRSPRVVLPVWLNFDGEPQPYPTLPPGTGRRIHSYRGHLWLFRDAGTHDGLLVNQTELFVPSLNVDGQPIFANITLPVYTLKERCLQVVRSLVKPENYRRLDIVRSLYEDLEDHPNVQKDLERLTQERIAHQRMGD

Molecular target: T1, nuclear factor kappa B subunit 2 (NFKB2) (human (endogenous in 786-O)) (UniProt Q00653)
T1 sequence: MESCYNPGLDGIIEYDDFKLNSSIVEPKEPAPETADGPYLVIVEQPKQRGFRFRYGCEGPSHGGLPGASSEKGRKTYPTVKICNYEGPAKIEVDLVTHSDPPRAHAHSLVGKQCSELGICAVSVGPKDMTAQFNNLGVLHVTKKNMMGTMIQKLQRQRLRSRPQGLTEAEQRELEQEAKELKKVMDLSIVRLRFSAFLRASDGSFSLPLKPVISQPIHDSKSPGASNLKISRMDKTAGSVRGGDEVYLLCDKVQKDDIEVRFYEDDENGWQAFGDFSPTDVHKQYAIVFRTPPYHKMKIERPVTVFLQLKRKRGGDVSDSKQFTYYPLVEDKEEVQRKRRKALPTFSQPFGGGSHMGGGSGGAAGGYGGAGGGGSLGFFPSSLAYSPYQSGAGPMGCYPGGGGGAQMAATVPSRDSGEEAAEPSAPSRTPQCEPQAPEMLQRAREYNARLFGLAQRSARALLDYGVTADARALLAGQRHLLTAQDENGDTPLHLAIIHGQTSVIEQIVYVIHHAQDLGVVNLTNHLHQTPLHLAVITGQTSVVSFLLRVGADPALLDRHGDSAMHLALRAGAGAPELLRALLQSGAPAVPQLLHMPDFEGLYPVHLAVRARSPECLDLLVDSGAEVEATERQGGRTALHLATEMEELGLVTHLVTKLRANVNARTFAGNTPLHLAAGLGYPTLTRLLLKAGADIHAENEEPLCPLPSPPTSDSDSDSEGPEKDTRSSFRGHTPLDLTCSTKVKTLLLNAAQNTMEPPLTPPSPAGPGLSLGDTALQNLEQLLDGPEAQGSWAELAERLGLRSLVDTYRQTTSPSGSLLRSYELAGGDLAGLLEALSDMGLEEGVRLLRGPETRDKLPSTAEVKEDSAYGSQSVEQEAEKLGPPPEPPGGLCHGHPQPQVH
Test: co-IP; lysates of 786-O-Ctrl and 786-O-VHL cells immunoprecipitated overnight with anti-NFKB2 (1:100) or control IgG, Protein G Sepharose 1 h, three washes with cell lysis buffer, immunoblot with anti-NFKB2 or anti-VHL

With “HA-tagged human VHL protein (von Hippel-Lindau) (from UniProt P40337 1-213)” the binding was “binds”.
